Reference: publication PMC9677703

Protein sequences, listed by entry. Tags and fused reporters are not part of them. Lines headed by an entry give the natural chain unless they say otherwise; changes in a name come on top.
UniProt P61328: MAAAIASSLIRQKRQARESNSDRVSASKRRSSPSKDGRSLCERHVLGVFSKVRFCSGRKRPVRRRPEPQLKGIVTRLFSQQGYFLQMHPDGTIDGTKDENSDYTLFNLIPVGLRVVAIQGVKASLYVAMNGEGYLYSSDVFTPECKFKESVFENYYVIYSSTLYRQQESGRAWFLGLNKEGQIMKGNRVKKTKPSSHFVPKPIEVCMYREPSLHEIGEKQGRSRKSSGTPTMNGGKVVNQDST

Biological target: FGF12Δ-His (131–181 FGF12 deletion mutant) (UniProt P61328)
Test: pull-down; recombinant FGF12-His or FGF12Δ-His bound to Ni Sepharose (1 h, 4 °C), incubated with U2OS cell lysate (0.15 M KCl, 40 mM Tris, 1% NP-40, 1 mM EDTA, pH 7.2) overnight at 4 °C; western blotting; also with nuclease-treated lysate (no effect); only the target purified

binding: no binding
B1: treacle ribosome biogenesis factor 1 (protein, UniProt Q13428 1-1488)
chain: MAEARKRRELLPLIYHHLLRAGYVRAAREVKEQSGQKCFLAQPVTLLDIYTHWQQTSELGRKRKAEEDAALQAKKTRVSDPISTSESSEEEEEAEAETAKATPRLASTNSSVLGADLPSSMKEKAKAETEKAGKTGNSMPHPATGKTVANLLSGKSPRKSAEPSANTTLVSETEEEGSVPAFGAAAKPGMVSAGQADSSSEDTSSSSDETDVEGKPSVKPAQVKASSVSTKESPARKAAPAPGKVGDVTPQVKGGALPPAKRAKKPEEESESSEEGSESEEEAPAGTRSQVKASEKILQVRAASAPAKGTPGKGATPAPPGKAGAVASQTKAGKPEEDSESSSEESSDSEEETPAAKALLQAKASGKTSQVGAASAPAKESPRKGAAPAPPGKTGPAVAKAQAGKREEDSQSSSEESDSEEEAPAQAKPSGKAPQVRAASAPAKESPRKGAAPAPPRKTGPAAAQVQVGKQEEDSRSSSEESDSDREALAAMNAAQVKPLGKSPQVKPASTMGMGPLGKGAGPVPPGKVGPATPSAQVGKWEEDSESSSEESSDSSDGEVPTAVAPAQEKSLGNILQAKPTSSPAKGPPQKAGPVAVQVKAEKPMDNSESSEESSDSADSEEAPAAMTAAQAKPALKIPQTKACPKKTNTTASAKVAPVRVGTQAPRKAGTATSPAGSSPAVAGGTQRPAEDSSSSEESDSEEEKTGLAVTVGQAKSVGKGLQVKAASVPVKGSLGQGTAPVLPGKTGPTVTQVKAEKQEDSESSEEESDSEEAAASPAQVKTSVKKTQAKANPAAARAPSAKGTISAPGKVVTAAAQAKQRSPSKVKPPVRNPQNSTVLARGPASVPSVGKAVATAAQAQTGPEEDSGSSEEESDSEEEAETLAQVKPSGKTHQIRAALAPAKESPRKGAAPTPPGKTGPSAAQAGKQDDSGSSSEESDSDGEAPAAVTSAQVIKPPLIFVDPNRSPAGPAATPAQAQAASTPRKARASESTARSSSSESEDEDVIPATQCLTPGIRTNVVTMPTAHPRIAPKASMAGASSSKESSRISDGKKQEGPATQVSKKNPASLPLTQAALKVLAQKASEAQPPVARTQPSSGVDSAVGTLPATSPQSTSVQAKGTNKLRKPKLPEVQQATKAPESSDDSEDSSDSSSGSEEDGEGPQGAKSAHTLGPTPSRTETLVEETAAESSEDDVVAPSQSLLSGYMTPGLTPANSQASKATPKLDSSPSVSSTLAAKDDPDGKQEAKPQQAAGMLSPKTGGKEAASGTTPQKSRKPKKGAGNPQASTLALQSNITQCLLGQPWPLNEAQVQASVVKVLTELLEQERKKVVDTTKESSRKGWESRKRKLSGDQPAARTPRSKKKKKLGAGEGGEASVSPEKTSTTSKGKAKRDKASGDVKEKKGKGSLGSQGAKDEPEEELQKGMGTVEGGDQSNPKSKKEKKKSDKRKKDKEKKEKKKKAKKASTKDSESPSQKKKKKKKKTAEQTV
modifications: heavily phosphorylated (sites not given)

Results are given in words; binding and its absence hold for the method and conditions named. In cells and extracts the contact can be indirect.
